# The other results are listed elsewhere or left out. Residues, ends and D or L forms follow the SMILES beside them. *: point of attachment. Cbz = O=C(OCc1ccccc1)*
# Chains of the proteins cited; added tags and fusions are not shown. Lines headed by an entry give the natural chain unless they say otherwise; changes in a name come on top.
# UniProt O95721: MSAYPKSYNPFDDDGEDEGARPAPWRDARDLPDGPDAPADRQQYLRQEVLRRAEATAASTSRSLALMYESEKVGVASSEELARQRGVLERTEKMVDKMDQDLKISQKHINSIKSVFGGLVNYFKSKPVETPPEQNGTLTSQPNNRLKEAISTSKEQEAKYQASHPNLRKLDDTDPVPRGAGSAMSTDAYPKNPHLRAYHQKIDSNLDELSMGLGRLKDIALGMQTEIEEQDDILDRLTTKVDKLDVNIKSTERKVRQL
# UniProt Q96CW6: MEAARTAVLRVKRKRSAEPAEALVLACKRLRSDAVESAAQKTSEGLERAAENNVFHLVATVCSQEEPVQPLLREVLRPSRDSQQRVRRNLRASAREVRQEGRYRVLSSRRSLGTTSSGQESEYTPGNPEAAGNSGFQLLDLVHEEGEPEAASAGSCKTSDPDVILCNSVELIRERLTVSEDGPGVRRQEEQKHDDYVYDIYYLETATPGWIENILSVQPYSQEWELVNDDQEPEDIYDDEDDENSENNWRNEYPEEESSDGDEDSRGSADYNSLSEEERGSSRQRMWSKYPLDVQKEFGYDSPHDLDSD
# UniProt Q02447: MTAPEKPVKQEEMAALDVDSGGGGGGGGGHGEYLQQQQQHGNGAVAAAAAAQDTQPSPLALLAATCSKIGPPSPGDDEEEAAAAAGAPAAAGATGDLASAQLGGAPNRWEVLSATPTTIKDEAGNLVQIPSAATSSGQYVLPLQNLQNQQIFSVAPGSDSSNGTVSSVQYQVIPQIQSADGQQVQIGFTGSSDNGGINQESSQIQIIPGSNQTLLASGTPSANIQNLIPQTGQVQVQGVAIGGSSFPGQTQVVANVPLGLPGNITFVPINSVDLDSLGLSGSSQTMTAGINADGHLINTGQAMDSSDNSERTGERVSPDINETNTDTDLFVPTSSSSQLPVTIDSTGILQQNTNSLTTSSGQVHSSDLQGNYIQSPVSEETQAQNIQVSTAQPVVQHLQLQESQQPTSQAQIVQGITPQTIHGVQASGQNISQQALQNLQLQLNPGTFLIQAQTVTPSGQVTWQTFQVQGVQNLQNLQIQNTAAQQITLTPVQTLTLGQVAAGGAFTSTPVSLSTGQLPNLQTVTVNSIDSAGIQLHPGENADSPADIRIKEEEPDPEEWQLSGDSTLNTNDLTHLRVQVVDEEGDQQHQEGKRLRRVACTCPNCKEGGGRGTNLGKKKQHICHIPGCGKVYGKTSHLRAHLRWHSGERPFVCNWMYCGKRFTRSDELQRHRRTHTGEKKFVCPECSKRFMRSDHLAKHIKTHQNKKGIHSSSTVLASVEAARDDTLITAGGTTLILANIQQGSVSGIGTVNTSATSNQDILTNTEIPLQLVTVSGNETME
# UniProt Q9UMY4: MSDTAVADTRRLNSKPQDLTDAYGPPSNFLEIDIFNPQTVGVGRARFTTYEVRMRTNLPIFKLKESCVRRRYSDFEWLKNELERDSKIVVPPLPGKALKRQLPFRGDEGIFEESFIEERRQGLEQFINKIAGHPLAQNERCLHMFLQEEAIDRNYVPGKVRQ
# UniProt O00193: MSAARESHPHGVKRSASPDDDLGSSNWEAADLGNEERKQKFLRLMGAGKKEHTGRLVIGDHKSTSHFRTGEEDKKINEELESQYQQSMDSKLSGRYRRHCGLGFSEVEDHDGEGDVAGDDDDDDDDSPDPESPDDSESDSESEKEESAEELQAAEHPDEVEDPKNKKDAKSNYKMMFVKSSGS
# UniProt Q9H2G2: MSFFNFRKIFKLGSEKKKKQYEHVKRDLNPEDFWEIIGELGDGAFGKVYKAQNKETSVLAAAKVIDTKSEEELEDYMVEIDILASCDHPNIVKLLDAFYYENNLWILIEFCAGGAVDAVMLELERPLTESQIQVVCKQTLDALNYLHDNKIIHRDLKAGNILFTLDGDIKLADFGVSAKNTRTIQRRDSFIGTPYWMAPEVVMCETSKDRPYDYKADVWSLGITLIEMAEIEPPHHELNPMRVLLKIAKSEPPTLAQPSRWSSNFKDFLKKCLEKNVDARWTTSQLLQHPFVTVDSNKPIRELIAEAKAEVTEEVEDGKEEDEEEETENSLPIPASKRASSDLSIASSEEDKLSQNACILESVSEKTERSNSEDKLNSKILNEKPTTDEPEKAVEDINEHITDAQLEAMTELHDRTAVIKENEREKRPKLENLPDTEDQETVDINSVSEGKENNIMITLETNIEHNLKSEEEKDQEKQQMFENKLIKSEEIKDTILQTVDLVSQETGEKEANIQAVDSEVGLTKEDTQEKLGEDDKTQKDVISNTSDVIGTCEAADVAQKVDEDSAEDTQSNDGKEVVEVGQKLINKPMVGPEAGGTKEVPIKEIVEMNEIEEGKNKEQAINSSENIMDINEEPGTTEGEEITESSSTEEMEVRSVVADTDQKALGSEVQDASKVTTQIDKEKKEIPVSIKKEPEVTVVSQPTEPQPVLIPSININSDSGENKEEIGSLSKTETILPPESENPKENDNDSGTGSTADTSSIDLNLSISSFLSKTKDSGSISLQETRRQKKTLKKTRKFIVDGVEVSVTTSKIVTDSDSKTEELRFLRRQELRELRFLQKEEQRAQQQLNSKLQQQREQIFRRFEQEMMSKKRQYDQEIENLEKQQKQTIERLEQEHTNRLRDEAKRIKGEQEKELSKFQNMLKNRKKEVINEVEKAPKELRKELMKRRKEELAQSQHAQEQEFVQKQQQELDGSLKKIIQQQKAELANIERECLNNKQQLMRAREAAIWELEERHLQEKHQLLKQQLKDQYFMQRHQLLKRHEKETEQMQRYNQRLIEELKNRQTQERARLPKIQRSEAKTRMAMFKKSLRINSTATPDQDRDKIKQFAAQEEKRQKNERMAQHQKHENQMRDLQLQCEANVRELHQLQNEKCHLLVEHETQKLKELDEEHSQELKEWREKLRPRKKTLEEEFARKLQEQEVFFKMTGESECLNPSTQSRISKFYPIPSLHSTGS
# UniProt P62318, whole entry, looked up: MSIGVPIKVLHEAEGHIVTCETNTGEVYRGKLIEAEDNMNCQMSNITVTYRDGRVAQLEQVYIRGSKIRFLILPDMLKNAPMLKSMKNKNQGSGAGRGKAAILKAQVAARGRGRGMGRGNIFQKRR
# UniProt Q9Y5X1: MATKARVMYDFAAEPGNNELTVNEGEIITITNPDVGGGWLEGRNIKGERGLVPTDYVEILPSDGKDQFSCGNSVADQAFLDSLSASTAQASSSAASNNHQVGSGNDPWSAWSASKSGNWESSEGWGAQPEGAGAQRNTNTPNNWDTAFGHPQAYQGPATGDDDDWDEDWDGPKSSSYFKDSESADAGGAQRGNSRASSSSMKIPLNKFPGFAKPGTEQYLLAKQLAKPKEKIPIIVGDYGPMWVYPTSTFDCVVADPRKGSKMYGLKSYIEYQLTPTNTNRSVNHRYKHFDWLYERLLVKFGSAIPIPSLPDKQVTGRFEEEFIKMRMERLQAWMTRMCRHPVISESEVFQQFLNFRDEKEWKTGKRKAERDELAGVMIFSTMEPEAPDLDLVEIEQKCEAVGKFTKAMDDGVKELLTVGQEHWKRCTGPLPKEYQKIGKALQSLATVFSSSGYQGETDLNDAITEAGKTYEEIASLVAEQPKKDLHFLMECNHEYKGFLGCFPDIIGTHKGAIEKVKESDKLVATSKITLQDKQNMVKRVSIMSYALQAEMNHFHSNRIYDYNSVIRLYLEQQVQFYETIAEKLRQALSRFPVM
# UniProt O60493, whole entry, looked up: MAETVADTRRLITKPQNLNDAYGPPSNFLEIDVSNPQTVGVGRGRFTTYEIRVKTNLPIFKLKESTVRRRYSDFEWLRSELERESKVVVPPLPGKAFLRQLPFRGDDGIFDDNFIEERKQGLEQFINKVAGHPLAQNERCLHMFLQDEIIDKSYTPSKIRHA
# UniProt Q92536: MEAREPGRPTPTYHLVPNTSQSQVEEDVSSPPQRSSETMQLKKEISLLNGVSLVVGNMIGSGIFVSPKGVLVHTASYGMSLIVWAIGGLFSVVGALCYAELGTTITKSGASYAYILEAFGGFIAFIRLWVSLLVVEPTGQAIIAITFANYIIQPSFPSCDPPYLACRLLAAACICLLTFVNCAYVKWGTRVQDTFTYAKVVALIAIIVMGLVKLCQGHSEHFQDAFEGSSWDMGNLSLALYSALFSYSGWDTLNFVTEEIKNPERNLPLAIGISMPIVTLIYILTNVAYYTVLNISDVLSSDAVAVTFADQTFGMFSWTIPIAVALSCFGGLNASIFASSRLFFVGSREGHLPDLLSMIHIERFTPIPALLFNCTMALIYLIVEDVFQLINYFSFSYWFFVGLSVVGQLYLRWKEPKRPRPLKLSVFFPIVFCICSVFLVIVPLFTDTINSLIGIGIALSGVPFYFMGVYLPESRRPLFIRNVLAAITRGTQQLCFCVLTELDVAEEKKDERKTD
# UniProt Q99523, whole entry, looked up: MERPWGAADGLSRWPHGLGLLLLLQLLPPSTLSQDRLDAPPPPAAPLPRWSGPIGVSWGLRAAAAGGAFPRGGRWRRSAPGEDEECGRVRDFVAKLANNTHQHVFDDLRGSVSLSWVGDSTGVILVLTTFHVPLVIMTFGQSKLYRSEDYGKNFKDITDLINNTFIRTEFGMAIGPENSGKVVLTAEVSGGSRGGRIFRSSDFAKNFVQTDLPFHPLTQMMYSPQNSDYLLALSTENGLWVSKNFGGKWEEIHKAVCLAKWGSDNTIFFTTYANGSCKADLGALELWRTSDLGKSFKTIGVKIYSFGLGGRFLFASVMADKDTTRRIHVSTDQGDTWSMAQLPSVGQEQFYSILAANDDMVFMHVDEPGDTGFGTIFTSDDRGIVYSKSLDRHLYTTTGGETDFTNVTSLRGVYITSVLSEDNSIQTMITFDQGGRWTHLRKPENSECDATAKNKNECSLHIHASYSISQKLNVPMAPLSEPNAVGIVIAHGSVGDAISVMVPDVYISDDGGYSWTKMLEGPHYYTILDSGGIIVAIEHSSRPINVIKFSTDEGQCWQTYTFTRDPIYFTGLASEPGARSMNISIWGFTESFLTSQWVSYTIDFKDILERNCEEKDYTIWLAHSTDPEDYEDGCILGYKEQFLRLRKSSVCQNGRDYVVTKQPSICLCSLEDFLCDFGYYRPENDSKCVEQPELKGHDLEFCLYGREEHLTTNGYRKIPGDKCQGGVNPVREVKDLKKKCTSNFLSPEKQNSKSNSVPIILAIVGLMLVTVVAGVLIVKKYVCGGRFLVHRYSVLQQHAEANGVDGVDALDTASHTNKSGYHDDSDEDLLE
# UniProt Q9Y5W9: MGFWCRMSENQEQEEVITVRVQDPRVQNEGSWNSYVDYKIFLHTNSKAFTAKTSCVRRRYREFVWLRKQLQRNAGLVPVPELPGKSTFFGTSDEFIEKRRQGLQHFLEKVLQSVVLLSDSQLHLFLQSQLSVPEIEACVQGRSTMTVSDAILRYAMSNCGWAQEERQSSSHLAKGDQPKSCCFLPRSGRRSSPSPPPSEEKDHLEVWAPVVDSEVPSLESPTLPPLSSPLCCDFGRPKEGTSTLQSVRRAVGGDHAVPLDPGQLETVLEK
# UniProt Q9H4L7: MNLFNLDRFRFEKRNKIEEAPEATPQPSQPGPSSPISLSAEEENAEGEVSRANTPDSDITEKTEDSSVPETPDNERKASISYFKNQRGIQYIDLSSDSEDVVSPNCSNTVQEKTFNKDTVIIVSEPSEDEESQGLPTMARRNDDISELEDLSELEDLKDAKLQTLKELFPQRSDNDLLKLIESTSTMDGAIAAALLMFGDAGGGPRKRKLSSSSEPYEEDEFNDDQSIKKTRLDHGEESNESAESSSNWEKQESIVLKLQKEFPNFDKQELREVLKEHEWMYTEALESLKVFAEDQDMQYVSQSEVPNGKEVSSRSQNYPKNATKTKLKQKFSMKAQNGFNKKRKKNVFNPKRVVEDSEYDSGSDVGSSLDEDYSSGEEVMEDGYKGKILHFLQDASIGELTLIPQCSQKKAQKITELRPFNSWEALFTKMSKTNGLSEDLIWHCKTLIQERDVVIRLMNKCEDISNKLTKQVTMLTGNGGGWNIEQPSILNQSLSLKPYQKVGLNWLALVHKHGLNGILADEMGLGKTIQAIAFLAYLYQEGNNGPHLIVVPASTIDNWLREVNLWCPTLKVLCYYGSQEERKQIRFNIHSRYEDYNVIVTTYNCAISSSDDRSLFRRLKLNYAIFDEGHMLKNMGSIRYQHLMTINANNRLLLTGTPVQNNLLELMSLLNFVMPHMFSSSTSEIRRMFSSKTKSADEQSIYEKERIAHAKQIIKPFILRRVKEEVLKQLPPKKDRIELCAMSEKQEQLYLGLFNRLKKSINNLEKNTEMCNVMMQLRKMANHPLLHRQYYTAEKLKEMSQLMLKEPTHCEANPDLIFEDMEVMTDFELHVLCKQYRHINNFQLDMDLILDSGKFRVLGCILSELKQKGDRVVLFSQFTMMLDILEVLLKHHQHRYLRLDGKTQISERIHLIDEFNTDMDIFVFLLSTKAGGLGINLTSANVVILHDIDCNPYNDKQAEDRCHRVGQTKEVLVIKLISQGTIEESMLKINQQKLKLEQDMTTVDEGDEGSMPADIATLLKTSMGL
# Legend:
# Experiment in all cases: log2 fold change, soluble protein after heating vs DMSO (PISA); higher = thermal stabilisation; K562 cells, 10 uM, 30 min; active = over 0.2 and 3.5 SD of the protein, either way, in both replicates (recomputed)
# [1] = compound: C1COCCN1CCN2C3=CC=CC=C3N=C2NC(=O)C4=CC(=CC=C4)[N+](=O)[O-] [IRAK-1-4 Inhibitor I]
# Procedure, shortened: (§1)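 K562 cells at 2×10^6 cells/mL were treated for 30 min with 10 μM compound, and aliquots were heated for 3 min over 48°C-58°C before pooling. Extraction used PBS with 0.5% NP-40 at 4°C, and soluble protein was the supernatant after 21,000xg for 90 min, measured by TMTpro 16plex LC-MS/MS with channel sums equalised. Thermal stability values, relative to control samples and from duplicates, are log2 fold changes.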
# [2] = compound: C=CC(=O)N1CCC[C@@H](n2nc(-c3ccc(Oc4ccccc4)cc3)c3c(N)ncnc32)C1 [ibrutinib]
# Procedure, shortened: as §1
# [3] = compound: CC(=O)c1cnc2ccc(-c3cc(Cl)c(O)c(Cl)c3)nc2c1N[C@H]1CC[C@H](CN(C)C)CC1
# Procedure, shortened: as §1
# [4] = compound: CC(C)(C)Cn1c(N)nc2ccc(-c3[nH]c(C(C)(C)C)nc3-c3ccc(F)cc3)nc21 [ralimetinib]
# Procedure, shortened: as §1
# [5] = compound: CC(C)(O)CC(=O)NCCn1ccc2ncnc(Nc3ccc(Oc4cccc(C(F)(F)F)c4)c(Cl)c3)c21
# Procedure, shortened: as §1
# [6] = compound: CC(C)C1=C2N=C(C=C(N2N=C1)NCC3=CC=CC=C3)NCCCCCCN
# Procedure, shortened: as §1
# [7] = compound: CC(C)C[C@@H](C=O)NC(=O)[C@H](CC(C)C)NC(=O)[C@H](CC(C)C)NC(=O)OCc1ccccc1
# Procedure, shortened: as §1
# [8] = compound: CC(C)N(C[C@H]1O[C@@H](n2cnc3c(N)ncnc32)[C@H](O)[C@@H]1O)[C@H]1C[C@@H](CCc2nc3cc(C(C)(C)C)ccc3[nH]2)C1 [pinometostat]
# Procedure, shortened: as §1
# [9] = compound: CC1=C(C(CC(=O)N1)C2=CC=C(C=C2)C(F)(F)F)C(=O)NC3=C(C=C4C(=C3)C=NN4)F
# Procedure, shortened: as §1
# [10] = compound: CC1=C(C2=C(C=C1)C(=O)C3=CC=CC=C3N2CCCN)C
# Procedure, shortened: as §1
Target,log2 fold change [1],log2 fold change [2],log2 fold change [3],log2 fold change [4],log2 fold change [5],log2 fold change [6],log2 fold change [7],log2 fold change [8],log2 fold change [9],log2 fold change [10]
SLCO4A1 (UniProt Q96BD0),inactive: -0.228,inactive: -0.272,inactive: -0.017,inactive: 0.041,inactive: 0.032,inactive: 0.246,inactive: 0.089,inactive: 0.168,inactive: -0.06,inactive: 0.111
SNX8 (UniProt Q9Y5X2),inactive: 0.067,inactive: 0.017,inactive: -0.083,inactive: -0.04,inactive: -0.046,inactive: 0.028,inactive: 0.042,inactive: -0.007,inactive: 0.002,inactive: -0.038
SMC6 isoform 2 (UniProt Q96SB8),inactive: -0.003,inactive: 0.007,inactive: -0.036,inactive: 0.051,inactive: -0.06,inactive: 0.105,inactive: 0.084,inactive: 0.042,inactive: -0.028,inactive: -0.268
SNAP29 (UniProt O95721),inactive: 0.03,inactive: -0.014,inactive: 0.025,inactive: -0.015,inactive: -0.001,inactive: -0.004,inactive: 0.019,inactive: -0.061,inactive: 0.011,inactive: 0.005
SLC7A6OS (UniProt Q96CW6),inactive: 0.018,inactive: -0.027,inactive: 0.046,inactive: 0.134,inactive: -0.032,inactive: 0.045,inactive: -0.019,active: 0.273,–,inactive: -0.199
SMC5 (UniProt Q8IY18),inactive: 0.041,inactive: 0.062,inactive: -0.045,inactive: 0.046,inactive: 0.029,inactive: 0.161,inactive: 0.036,inactive: 0.008,–,active: -0.332
SMAD2 (UniProt Q15796),inactive: -0.145,inactive: 0.05,inactive: -0.091,inactive: -0.069,inactive: -0.088,inactive: -0.015,inactive: 0.124,inactive: -0.125,–,inactive: 0.079
SLC9A6 isoform 2 (UniProt Q92581),inactive: 0.052,inactive: 0.024,inactive: 0.005,inactive: -0.056,inactive: -0.02,inactive: 0.038,inactive: 0.042,inactive: 0.083,–,inactive: 0.023
SP3 (UniProt Q02447),inactive: -0.129,inactive: 0.003,inactive: -0.007,inactive: 0,inactive: 0.022,inactive: -0.006,inactive: 0.054,inactive: 0.026,–,active: 0.607
SNX12 isoform 1 (UniProt Q9UMY4),inactive: 0.039,inactive: -0.007,inactive: -0.069,inactive: -0.011,inactive: -0.068,inactive: -0.09,inactive: 0.03,inactive: 0.032,–,inactive: 0
SNX2 (UniProt O60749),inactive: 0.058,inactive: 0.043,inactive: -0.135,inactive: -0.014,inactive: -0.154,inactive: -0.189,inactive: 0.079,inactive: 0.016,–,inactive: 0.03
SNW1 (UniProt Q13573),inactive: 0.004,inactive: 0.024,inactive: 0.197,inactive: 0.021,inactive: 0.024,inactive: 0.149,inactive: 0.075,inactive: -0.008,–,active: 0.23
SMAP (UniProt O00193),inactive: 0.134,inactive: -0.063,inactive: -0.021,inactive: 0.007,inactive: -0.004,inactive: 0.058,inactive: -0.018,inactive: -0.049,–,inactive: -0.021
SMCHD1 (UniProt A6NHR9),inactive: -0.268,inactive: -0.007,inactive: -0.344,inactive: 0.108,inactive: 0.068,inactive: -0.067,inactive: 0.038,inactive: 0.092,–,inactive: 0.406
SLK isoform 2 (UniProt Q9H2G2),inactive: -0.008,inactive: -0.123,inactive: 0.04,inactive: 0.005,inactive: -0.216,inactive: 0.002,inactive: 0.022,inactive: 0.022,–,inactive: 0.073
SNRPD3 (UniProt P62318),inactive: 0.002,inactive: -0.006,inactive: 0.067,inactive: -0.022,inactive: 0.208,inactive: 0.162,inactive: 0.017,inactive: 0.027,–,inactive: 0.022
SP1 (UniProt P08047),inactive: 0.013,inactive: 0.024,inactive: 0.029,inactive: -0.049,inactive: -0.031,inactive: -0.05,inactive: 0.064,inactive: 0.04,–,active: -0.312
SPAG9 (UniProt O60271),inactive: -0.003,inactive: -0.003,inactive: 0.022,inactive: 0,inactive: -0.045,active: -0.219,inactive: 0.016,inactive: 0.028,–,inactive: -0.004
SNX9 (UniProt Q9Y5X1),inactive: -0.011,inactive: 0.025,inactive: -0.043,inactive: 0.005,inactive: 0.002,inactive: 0.014,inactive: 0.029,inactive: 0.04,–,inactive: 0.02
SMYD2 (UniProt Q9NRG4),inactive: -0.154,inactive: 0.029,inactive: -0.088,inactive: -0.105,inactive: -0.087,inactive: -0.117,inactive: 0.134,inactive: 0.099,–,inactive: 0.116
SNX3 (UniProt O60493),inactive: -0.049,inactive: 0.011,inactive: -0.028,inactive: -0.059,inactive: -0.104,inactive: -0.187,inactive: 0.084,inactive: 0.073,–,inactive: 0.053
SLC7A6 (UniProt Q92536),inactive: -0.03,inactive: -0.032,inactive: -0.037,inactive: -0.02,inactive: -0.301,inactive: 0.142,inactive: 0.006,inactive: -0.068,–,inactive: -0.02
SLIRP (UniProt Q9GZT3),inactive: 0.004,inactive: 0.035,inactive: -0.192,inactive: -0.027,inactive: -0.239,inactive: -0.02,active: 0.393,inactive: -0.016,–,inactive: -0.342
SMG1 (UniProt Q96Q15),inactive: -0.088,inactive: 0.021,inactive: -0.002,inactive: 0.012,inactive: 0.002,inactive: 0.007,inactive: -0.014,inactive: -0.06,–,inactive: 0.054
SORT1 (UniProt Q99523),inactive: 0.044,inactive: 0.044,inactive: 0.031,inactive: -0.005,inactive: -0.027,inactive: -0.202,inactive: -0.028,inactive: -0.03,–,inactive: -0.019
SNX11 (UniProt Q9Y5W9),inactive: 0.069,inactive: 0.13,inactive: -0.062,inactive: -0.001,inactive: 0.085,inactive: -0.218,inactive: 0.043,inactive: -0.067,–,inactive: -0.101
SMARCAD1 isoform 2 (UniProt Q9H4L7),inactive: -0.031,inactive: -0.016,inactive: 0.014,inactive: -0.009,inactive: -0.201,inactive: -0.2,inactive: 0.029,inactive: -0.003,–,inactive: 0.144

# Reformatted: results already given
Target | log2 fold change [1] | log2 fold change [2] | log2 fold change [3] | log2 fold change [4] | log2 fold change [5] | log2 fold change [6] | log2 fold change [7] | log2 fold change [8] | log2 fold change [9] | log2 fold change [10]
SLC9A6 isoform 2 (UniProt Q92581) | inactive: 0.052 | inactive: 0.024 | inactive: 0.005 | inactive: -0.056 | inactive: -0.02 | inactive: 0.038 | inactive: 0.042 | inactive: 0.083 | – | inactive: 0.023
SNX2 (UniProt O60749) | inactive: 0.058 | inactive: 0.043 | inactive: -0.135 | inactive: -0.014 | inactive: -0.154 | inactive: -0.189 | inactive: 0.079 | inactive: 0.016 | – | inactive: 0.03
SNW1 (UniProt Q13573) | inactive: 0.004 | inactive: 0.024 | inactive: 0.197 | inactive: 0.021 | inactive: 0.024 | inactive: 0.149 | inactive: 0.075 | inactive: -0.008 | – | active: 0.23
SMYD2 (UniProt Q9NRG4) | inactive: -0.154 | inactive: 0.029 | inactive: -0.088 | inactive: -0.105 | inactive: -0.087 | inactive: -0.117 | inactive: 0.134 | inactive: 0.099 | – | inactive: 0.116
SLIRP (UniProt Q9GZT3) | inactive: 0.004 | inactive: 0.035 | inactive: -0.192 | inactive: -0.027 | inactive: -0.239 | inactive: -0.02 | active: 0.393 | inactive: -0.016 | – | inactive: -0.342
SMARCAD1 isoform 2 (UniProt Q9H4L7) | inactive: -0.031 | inactive: -0.016 | inactive: 0.014 | inactive: -0.009 | inactive: -0.201 | inactive: -0.2 | inactive: 0.029 | inactive: -0.003 | – | inactive: 0.144
